From paper PMC10713589 come the findings set out here.

Test [1] addresses VSG exclusion factor 2 (VEX2) with an N-terminal GFP tag, tagged at the native locus (T. brucei). Nature of the test: affinity purification with mass spectrometry; as a1 but with the alternative extraction buffer (by the methods 100 mM NaCl/0.1% Tween-20).
Test [2] has the same target. Nature of the test: affinity purification with mass spectrometry; GFP-VEX2 held on GFP-Trap magnetic agarose beads from cryo-milled bloodstream-form T. brucei; 20 mM HEPES pH 7.4, 1 mM MgCl2, 10 uM CaCl2, sodium citrate (250 mM)/0.1% Tween-20; 4 °C, 2 h; LC-MS/MS, label-free, against an untagged wild-type control; three replicates.

Results are given in words; binding and its absence hold for the method and conditions named. In cells and extracts the contact can be indirect. A yes stands for co-enrichment or nearness to the bait. Other partners may have been found. For part of these data: A no says only that the protein was not detected with the bait.

B1: TRF, T. brucei telomere-binding protein (protein, UniProt Q4VHG6 1-382)
chain: MYCHAGVPSTSPSPTDFSEVHKILCGHIKQGNNFSVAAAVALEPLHGSSEFWRTCGYRSGIVSALLASSLGVQRETDQLSHLEPMTVADVYAMFRHVVDENAHLRQIIARLESGECDPDDGSGGITSSAERLRSLISEGYDALTGRSSPCMGEDDCGQTPGKWKTCSSGAAGTKRRRDSPEVTERAYVRPESPVPASETLSPAANSGDDTVDEAEQNNALDVLEQLPALPGTTRTVSSFDAVGEMVNRGAGGPSLHPTNPSEFRVGSERGSTIETHSSSELSNFANVGVGTSSGKQKRYKFSASEDEAIIKGLARFTKGQQRFQQIYYAYRSVWHPARTVSQLYDHWRGTLRYKVIQQQGYRGKNSVAARSPEKASNMENNE
For the molecule B1, the binding entry in test [1] and in test [2] was “binds weakly” in each case.

B2: RAP1, T. brucei telomere-binding protein (protein, UniProt C1JEX5 1-855)
chain: MTDVDGGSGASWKRLRFFVCADTLLTFQPVDSSHLEGRPGQPEQRYLLVDGEYRPITSYPTSSLFLETLKLAGSTVVVIAPWKRAKTKKLLSLFGWTAFDEIRSIHPEPGRDKLHLACIGCSADEYSTSVIVATSRADWSPSMYPQLVEVKHGVNQVPHSLALLRALSSCLRLAEWQVRLPHVPISSCATLCRSRLFSHCRFFLEPVASEDATVALSINEHGGYIVTRREDATHCVVSGSLPNLPGDISNLPPGGCAAKAVKECSVLPTSAEGRSAEPKSAKVDTDSVSLVKNQVDESDDSIKDEFSYSAGNAATAMVECGDEGVWNEENADDEDPVTMIPPGTFSEDDEDDAPGGLEEADGETVTTVTTQWLKDCAEGLFMYPPQVSHTSKDGSDWNITGLLLATILPTSDAEPLLLSSFNTFAERSGFEPLQLNSADEGGLAEVMQRQWGGVLCMEEKDGDFLLSQTNIYTEAFSDEMDKHLTFVANRFCEAWKDAVQRRRALLGSDAGTQTTVSITVTFGTNTEVEVAPSVQPPPPPPPAPQPTTASAAANEGSKESATPALPFLMRALGPAEWAKEVEAPRSPPPSAVPDIPLKQDPVPSGEGVATAENSVGNDQKESTSRQVAGDAGDTANVAEATEEIAALDQPFEKCFIPTEALGSDREGLDRTQLERQLPFRNYPIKLNVSKSGIFCQFPTVSDAKRFYEEGTVEILNRSLPIKPVFEKRNETVAPAERKRRRSVSPGGVHPQTAAVSALSRRGIQGATYARTQRSRTDNGWKAEGDRNPFVLTEEENSLLTSLGITYTYALENVPLLEHYAQKDLSSKVYRKEKGVLVKMLEKLKAVKGTTSKAPQ
As to B2, the binding result in test [2] is listed as “no binding”.
